Some of the results follow.
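Further: competitive profiling in live THP-1 cells: cysteine peptides tagged with an iodoacetamide desthiobiotin (IA-DTB) probe, intensity after compound treatment relative to DMSO-treated cells.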

Sequences of proteins named here, by UniProt entry; tags and fusion partners are left off. A change or cut given only in a name is not applied to a line headed by its entry.
UniProt Q5H9R7: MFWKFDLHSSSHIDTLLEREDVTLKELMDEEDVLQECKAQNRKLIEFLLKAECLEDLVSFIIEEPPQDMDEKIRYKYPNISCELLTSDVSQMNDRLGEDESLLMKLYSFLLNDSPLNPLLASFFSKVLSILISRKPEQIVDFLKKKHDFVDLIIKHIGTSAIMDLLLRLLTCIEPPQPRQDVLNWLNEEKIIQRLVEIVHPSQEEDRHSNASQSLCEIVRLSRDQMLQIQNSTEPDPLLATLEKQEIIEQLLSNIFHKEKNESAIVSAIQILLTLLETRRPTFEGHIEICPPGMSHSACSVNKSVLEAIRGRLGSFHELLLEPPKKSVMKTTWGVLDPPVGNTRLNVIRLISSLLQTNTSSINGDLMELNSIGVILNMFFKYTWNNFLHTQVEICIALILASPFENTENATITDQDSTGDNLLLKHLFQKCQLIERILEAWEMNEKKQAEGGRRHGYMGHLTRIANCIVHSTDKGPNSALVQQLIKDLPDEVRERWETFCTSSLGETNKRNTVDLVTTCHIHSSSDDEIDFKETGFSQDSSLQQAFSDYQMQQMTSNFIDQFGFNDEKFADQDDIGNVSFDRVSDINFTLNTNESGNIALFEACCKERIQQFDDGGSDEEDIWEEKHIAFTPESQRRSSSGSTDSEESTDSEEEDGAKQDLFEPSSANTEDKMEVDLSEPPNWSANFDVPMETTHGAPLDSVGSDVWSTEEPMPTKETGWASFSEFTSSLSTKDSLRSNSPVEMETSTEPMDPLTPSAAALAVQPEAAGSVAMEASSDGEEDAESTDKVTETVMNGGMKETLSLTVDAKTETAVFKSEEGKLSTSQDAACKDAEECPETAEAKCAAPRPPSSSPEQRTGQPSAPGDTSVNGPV
UniProt Q86YV5: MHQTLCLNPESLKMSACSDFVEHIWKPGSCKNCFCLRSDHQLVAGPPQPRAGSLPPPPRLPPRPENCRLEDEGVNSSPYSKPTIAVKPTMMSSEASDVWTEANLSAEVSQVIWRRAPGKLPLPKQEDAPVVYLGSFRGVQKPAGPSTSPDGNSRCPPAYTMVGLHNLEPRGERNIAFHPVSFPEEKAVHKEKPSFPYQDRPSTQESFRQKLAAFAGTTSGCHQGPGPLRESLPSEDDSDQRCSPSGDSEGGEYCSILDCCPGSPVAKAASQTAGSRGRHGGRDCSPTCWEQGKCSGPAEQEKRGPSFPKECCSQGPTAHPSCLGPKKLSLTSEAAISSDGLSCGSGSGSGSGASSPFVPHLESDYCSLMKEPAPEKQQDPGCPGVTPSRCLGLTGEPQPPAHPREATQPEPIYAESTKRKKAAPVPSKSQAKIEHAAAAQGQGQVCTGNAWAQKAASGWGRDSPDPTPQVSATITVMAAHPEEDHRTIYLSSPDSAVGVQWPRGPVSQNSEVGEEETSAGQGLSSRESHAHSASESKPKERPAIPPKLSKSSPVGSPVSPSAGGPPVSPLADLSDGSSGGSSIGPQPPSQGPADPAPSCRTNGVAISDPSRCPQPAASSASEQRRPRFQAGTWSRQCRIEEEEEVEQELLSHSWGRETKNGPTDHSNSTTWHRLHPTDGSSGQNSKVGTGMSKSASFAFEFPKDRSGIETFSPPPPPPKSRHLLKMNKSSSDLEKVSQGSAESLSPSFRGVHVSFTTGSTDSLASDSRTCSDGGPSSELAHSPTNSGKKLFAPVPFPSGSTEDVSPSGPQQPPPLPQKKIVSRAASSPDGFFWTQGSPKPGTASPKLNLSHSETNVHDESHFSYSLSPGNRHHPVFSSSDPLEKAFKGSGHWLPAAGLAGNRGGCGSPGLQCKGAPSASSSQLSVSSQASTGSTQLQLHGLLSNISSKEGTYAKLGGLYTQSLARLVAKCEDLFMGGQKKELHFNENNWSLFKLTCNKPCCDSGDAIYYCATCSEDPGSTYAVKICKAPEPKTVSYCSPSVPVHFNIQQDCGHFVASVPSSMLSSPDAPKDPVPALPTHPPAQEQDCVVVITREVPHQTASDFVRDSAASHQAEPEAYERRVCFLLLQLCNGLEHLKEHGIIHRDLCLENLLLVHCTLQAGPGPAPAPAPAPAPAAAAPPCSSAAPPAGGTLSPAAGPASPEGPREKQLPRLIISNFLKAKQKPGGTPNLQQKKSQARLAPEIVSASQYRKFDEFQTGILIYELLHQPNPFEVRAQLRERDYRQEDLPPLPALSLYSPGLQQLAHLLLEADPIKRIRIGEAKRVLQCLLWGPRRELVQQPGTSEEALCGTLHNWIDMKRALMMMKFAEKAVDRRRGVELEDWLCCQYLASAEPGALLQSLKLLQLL
UniProt Q96SB3: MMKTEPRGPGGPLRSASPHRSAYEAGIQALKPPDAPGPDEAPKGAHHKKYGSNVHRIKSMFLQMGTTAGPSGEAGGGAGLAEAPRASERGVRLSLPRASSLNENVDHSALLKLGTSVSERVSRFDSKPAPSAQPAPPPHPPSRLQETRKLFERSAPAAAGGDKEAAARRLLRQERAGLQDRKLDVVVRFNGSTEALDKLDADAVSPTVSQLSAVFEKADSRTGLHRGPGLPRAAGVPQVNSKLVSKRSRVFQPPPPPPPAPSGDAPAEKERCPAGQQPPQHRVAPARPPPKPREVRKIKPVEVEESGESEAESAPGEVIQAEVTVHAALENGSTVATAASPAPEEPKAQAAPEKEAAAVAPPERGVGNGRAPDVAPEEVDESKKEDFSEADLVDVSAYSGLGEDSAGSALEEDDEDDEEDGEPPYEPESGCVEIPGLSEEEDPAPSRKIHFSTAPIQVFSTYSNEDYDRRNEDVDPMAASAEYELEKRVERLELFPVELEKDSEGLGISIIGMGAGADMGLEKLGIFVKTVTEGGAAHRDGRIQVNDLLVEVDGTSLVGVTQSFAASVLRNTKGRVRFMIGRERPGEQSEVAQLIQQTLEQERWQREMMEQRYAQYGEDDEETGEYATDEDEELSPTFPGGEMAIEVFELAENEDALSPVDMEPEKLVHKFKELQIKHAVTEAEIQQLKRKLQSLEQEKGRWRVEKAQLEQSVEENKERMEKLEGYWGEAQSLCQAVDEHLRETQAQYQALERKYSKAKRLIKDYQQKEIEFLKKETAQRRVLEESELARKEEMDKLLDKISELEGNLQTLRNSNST
UniProt O00743: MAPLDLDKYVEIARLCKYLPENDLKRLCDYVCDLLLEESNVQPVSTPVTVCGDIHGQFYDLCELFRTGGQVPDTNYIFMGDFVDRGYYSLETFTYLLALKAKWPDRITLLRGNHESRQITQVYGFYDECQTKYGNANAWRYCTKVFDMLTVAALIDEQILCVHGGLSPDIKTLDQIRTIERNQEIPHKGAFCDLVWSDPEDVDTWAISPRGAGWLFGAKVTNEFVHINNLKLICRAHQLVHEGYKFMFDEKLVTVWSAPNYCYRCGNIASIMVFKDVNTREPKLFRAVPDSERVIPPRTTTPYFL
UniProt P30153, whole entry, looked up: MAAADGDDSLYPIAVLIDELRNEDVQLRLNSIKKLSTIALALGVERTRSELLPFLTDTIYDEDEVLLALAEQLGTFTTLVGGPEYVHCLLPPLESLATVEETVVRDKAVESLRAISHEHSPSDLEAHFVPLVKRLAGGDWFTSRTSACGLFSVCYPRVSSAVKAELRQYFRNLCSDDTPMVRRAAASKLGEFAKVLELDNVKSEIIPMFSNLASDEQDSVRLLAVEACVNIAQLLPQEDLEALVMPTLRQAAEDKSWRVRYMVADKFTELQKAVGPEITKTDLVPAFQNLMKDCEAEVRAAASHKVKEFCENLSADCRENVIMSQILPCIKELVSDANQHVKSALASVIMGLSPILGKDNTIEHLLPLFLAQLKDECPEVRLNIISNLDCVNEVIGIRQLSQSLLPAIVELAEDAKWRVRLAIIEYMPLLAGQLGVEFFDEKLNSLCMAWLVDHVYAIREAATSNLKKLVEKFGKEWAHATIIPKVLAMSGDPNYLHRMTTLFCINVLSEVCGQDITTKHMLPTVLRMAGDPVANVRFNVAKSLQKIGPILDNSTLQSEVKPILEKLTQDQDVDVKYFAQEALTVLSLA
UniProt P30041: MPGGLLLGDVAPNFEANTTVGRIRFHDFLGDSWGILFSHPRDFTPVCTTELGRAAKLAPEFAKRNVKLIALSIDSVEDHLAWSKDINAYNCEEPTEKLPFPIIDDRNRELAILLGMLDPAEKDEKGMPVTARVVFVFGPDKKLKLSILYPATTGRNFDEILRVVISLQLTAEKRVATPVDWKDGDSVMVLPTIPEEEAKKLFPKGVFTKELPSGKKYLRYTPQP
UniProt P63098, whole entry, looked up: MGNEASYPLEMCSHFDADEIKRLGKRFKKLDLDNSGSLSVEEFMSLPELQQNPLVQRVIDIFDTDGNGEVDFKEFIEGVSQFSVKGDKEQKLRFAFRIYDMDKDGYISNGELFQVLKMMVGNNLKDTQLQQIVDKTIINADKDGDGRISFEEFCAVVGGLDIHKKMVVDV

Compound in this assay: Cc1cc(ccc1-c1ccccc1)C(=O)N1CCCN(CC1)C(=O)CCl [compound 10]
Description: probe-labelled cysteine peptide fold change vs DMSO (competition) (log2 fold change); higher = less target engagement (more negative = stronger competition). As to conditions: 50 µM; THP-1; incubation time: 4 h.
For the target “PPP3CB_P16298_162_GNHECR (UniProt P16298)”, the “probe-labelled cysteine peptide fold change” value turned out to be 0.0397.
Next, “PPP6R3_Q5H9R7_519_NTVDLVTTCHIHSSSDDEIDFK (UniProt Q5H9R7)”: -0.0983; “PRAG1_Q86YV5_1087_DPVPALPTHPPAQEQDCVVVITR (UniProt Q86YV5)”: 0.257; “PRDX3_P30048_229_AFQYVETHGEVCPANWTPDSPTIKPSPAASK (UniProt P30048)”: -0.275.
“PPP1R9B_Q96SB3_270_ERCPAGQQPPQHR (UniProt Q96SB3)”: the “probe-labelled cysteine peptide fold change” value was -0.262.
As to “PPP6C_O00743_192_GAFCDLVWSDPEDVDTWAISPR (UniProt O00743)”, the “probe-labelled cysteine peptide fold change” value is -0.255.
“PPP2R1A_P30153_329_ENVIMSQILPCIK (UniProt P30153)”: the “probe-labelled cysteine peptide fold change” value was determined as 0.148.
Next, “PPP4R3A_Q6IN85_135_DPSVDITQDLVDESEEERFDDMSSPGLELPSCELSR (UniProt Q6IN85)”: -0.256.
Turning to “PPP3CB_P16298_477_ICSFEEAK (UniProt P16298)”, the “probe-labelled cysteine peptide fold change” value was -0.422.
Consider “PRDX6_P30041_47_DFTPVCTTELGR (UniProt P30041)”, for which the “probe-labelled cysteine peptide fold change” value was -0.164.
Next, “PPP3R1_P63098_154_ISFEEFCAVVGGLDIHKK (UniProt P63098)”: -0.0352.

The values above are taken from the supplement of paper PMC12067093, “Discovery and optimisation of a covalent ligand for TRIM25 and its application to targeted protein ubiquitination” (Chemical Science, 2025).
